# Reference: patent US8883965B2 (Ferring B.V., priority 2006, dated 2014)
# How the values were obtained:
# [1] = Fmoc solid-phase peptide synthesis; Tentagel-S-RAM; DIC/HOBt; DCC, PyBOP or DIC/HOBt; details: whole synthesis, scale 0.1 mmol, acetate
# [2] = general procedure: Fmoc solid-phase peptide synthesis; Tentagel-S-RAM; DIC/HOBt; DCC, PyBOP or DIC/HOBt; details: whole synthesis, analytical HPLC (Agilent 1100, Vydac C18), scale 0.1 mmol, acetate
substance,measurement,setting,value
"[Cha^2, Asn^4, Orn(i-Pr)^6]VT",isolated mass,[1],20.7 mg
same,isolated yield,[1],20%
same,final HPLC purity,[2],100%
